Experimental data as given in publication doi:10.1101/022756.
These are yes or no findings as the source states them, for the method shown. Some binding calls cover weakened binding; strength is not graded here. Tags and fused reporters may be left off the sequences shown.

Target: T1, EFN-4::Fc::mycHis (C. elegans) (UniProt O44516)
T1 sequence: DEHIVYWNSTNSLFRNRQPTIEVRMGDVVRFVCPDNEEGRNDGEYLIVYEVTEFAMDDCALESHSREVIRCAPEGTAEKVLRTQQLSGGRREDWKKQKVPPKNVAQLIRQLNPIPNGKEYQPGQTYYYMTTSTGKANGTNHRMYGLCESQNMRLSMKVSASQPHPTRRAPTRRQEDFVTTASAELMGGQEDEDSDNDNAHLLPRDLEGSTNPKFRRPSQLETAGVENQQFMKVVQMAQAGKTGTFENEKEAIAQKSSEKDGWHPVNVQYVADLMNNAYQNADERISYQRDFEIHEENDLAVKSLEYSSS
Experiment: BLI

binding: binds
B1: VAB-1 extracellular domain fused to alkaline phosphatase (receptor, UniProt O61460 30-559)
chain: HQEVLFDLSKVGSDLKWDQVSLRHDRDDVWMEETWRNPAATDEKHANQRAYVTCNYDMINPSNWLFSHFIEVKTARRIYIELLFNTRDCDAYLNPKSCKETFSVYLKQFKTSRPGSTKIEKERFSEDIDNWKNIGRLARSNSNMTTETLGMEIDSDTKTIRIAFEEQGICLSLLNVKIYYRICDEFTDQLVYFRPQVTGPKETDMVRMNGSCIPNASKKIPGVDLIGLCMSTGSGIKTSGECVCDSGYSQIADSNGARCESCPTNTYKPKGQSLCKSCPSNSISSEAASSCRCLNGYFRAEDELISMPCTQPPSRPIKLVANAITATSTRLSWNEPSSLGGRPEIWYEVKCSGRGECGTVVMTPGDKKLSTRSVQINGLRPSSDYTFLVFAKNKVSAQFPEFSEKNAVIDIRTRSEEEDVPPVSHLRVDASQSDGITIAWSVSDSDVSDFEVEVRPAIVKKRTFETRHVNMTYTTFIGLNPETVYQFRVRIRDDLRWSQPISYQLGRGLMSSPSSNEVEESQFLNQTGSA
